Values of other authors in patent US20210174908A1, “CLASSIFICATION OF TUMOR MICROENVIRONMENTS” (Oncxerna Therapeutics, Inc., priority 2019, published 2021).
At least one structure is not confirmed: it was looked up by name or label, or the drawing left a doubt.

How the values were obtained:
circulating MDSC = conditions: metastatic renal cell carcinoma patients; cited from earlier work
MDSC = conditions: pre-clinical models; cited from earlier work

Structure (SMILES) | Effect on number of circulating MDSC (circulating MDSC) | Effect on MDSC functions (MDSC)
CCN(CC)CCNC(=O)c1c(C)[nH]c(/C=C2\C(=O)Nc3ccc(F)cc32)c1C [Sunitinib] | decrease the number of circulating MDSC | 
CN1CC(=O)N2[C@H](c3ccc4c(c3)OCO4)c3[nH]c4ccccc4c3C[C@@H]2C1=O [tadalafil] |  | significantly inhibited the MDSC functions
